The target in this experiment is HA-tagged WT Htz1 (S. cerevisiae H2A.Z) (S. cerevisiae), Q12692. The experiment in a line: co-IP; HA-Htz1 immunoprecipitated from soluble yeast cell lysate with monoclonal anti-HA agarose beads overnight at 4°C, washed three times in co-IP buffer; partners detected by immunoblot (anti-Flag or anti-Chz1). The settings on record: remark: other sources report otherwise.

Results are given in words; binding and its absence hold for the method and conditions named. Binding seen in cells or lysates may run through a third protein. Some entries that bind do so weakly or less than the wild type.

The source of these data is PMC3788105.

B1: Chz1, P40019 1-153 (protein)
chain: MSDEAKEKRELESQKESSHNKSEKSVEPKPKRRRRRNYDDYDAEVAKEETKAKNGLTKSENNGTVEDSESDMDDAKLDALMGNEGEEEEDDLAEIDTSNIITSGRRTRGKVIDYKKTAEELDKKEPSTGSKDDVGYGEKEEDDEDEEDDDFKE
Take B1: the binding entry is “binds”.
